Positions count from the first letter of the chain named. No constants are given. Whether binding was seen depends on the method and setting. A result given as binding can be weak or reduced; the word gives no strength.
B1: PepQ-24F (enzyme, UniProt P21165 1-443)
chain: MESLASLYKNHIATLQERTRDALCRFKLDALLIHSGELFNVFLDDHPYPFKVNPQFKAWVPVTQVPNCWLLVDGVNKPKLWFYLPVDYWHNVEPLPTSFWTEDVEVIALPKADGIGSLLPAARGNIGYIGPVPERALQLGIEASNINPKGVIDYLHYYRSFKTEYELACMREAQKMAVNGHRAAEEAFRSGMSEFDINIAYLTATGHRDTDVPYSNIVALNEHAAVLHYTKLDHQAPEEMRSFLLDAGAEYNGYAADLTRTWSAKSDNDYAQLVKDVNDEQLALIATMKAGVSYVDYHIQFHQRIAKLLRKHQIITDMSEEAMVENDLTGPFMPHGIGHPLGLQVHDVAGFMQDDSGTHLAAPAKYPYLRCTRILQPGMVLTIEPGIYFIESLLAPWREGQFSKHFNWQKIEALKPFGGIRIEDNVVIHENNVENMTRDLKLA
modifications: fluorescein (5-iodoacetamidofluorescein) on the cysteine at position 24
B2: wild type E. coli PepQ (enzyme, UniProt P21165 1-443)
chain: B1 chain with C24A

By UniProt entry, the sequences of proteins in these tests, tags left out. Where a name states a change or a piece, a line headed by the entry shows the natural chain unless it says otherwise.
UniProt P0A6F5: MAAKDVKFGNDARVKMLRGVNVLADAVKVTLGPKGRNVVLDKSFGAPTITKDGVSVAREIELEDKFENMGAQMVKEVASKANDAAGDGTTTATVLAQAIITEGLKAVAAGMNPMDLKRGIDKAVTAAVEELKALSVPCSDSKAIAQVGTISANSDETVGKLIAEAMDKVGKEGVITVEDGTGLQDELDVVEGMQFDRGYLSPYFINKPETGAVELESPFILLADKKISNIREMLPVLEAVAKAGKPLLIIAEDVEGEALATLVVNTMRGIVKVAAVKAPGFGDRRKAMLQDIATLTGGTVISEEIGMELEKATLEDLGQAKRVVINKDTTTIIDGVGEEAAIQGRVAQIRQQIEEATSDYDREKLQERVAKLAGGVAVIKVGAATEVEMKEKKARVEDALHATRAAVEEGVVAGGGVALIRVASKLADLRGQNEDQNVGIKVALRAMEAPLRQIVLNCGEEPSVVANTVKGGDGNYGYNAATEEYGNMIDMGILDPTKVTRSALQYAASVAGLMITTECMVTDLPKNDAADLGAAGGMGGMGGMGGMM

Columns and labels:
[1] = molecular target: single-ring mutant of GroEL, SR1 (E. coli) (UniProt P0A6F5); experiment: protease protection (encapsulation); denatured PepQ-24F (100 nM) bound to wild-type or Δ526 GroEL-GroES-ADP bullets (200 nM) or full-length or Δ526 single-ring GroEL (300 nM) with GroES (600 nM); single turnover with ATP (2 mM), quenched after 10 s; unencapsulated PepQ digested with Proteinase K; SDS-PAGE, fluorescein scan; both purified
[2] = molecular target: asymmetric Δ526-GroES-ADP complex (E. coli); experiment: as above
[3] = molecular target: C-terminal truncation mutant of tetradecamer GroEL, Δ526 (E. coli) (UniProt P0A6F5); experiment: cryo-EM structure; acid-urea denatured PepQ (7 μM final) titrated into GroEL or Δ526 (8 μM tetradecamers) in TKM buffer, no nucleotide, room temperature 5 min; asymmetric 3D classification and refinement; both purified

| Binder | binding [1] | binding [2] | binding [3] |
| --- | --- | --- | --- |
| B1 | binds | binds | – |
| B2 | – | – | binds |
